# Measurements as given in patent publication US8552007B2, “Mesoionic pesticides” (E.I. du Pont de Nemours and Company, priority 2008, dated 2013).
# Where two headings read alike, the source gives them in different places. Some results were stated once for a whole list of compounds, not compound by compound. At least one structure is not confirmed: it was looked up by name or label, or the drawing left a doubt.
# Tests used:
# Assay type in all cases: in vivo
# [1] = test system: diamondback moth (Plutella xylostella); assay: Test A: control of diamondback moth, foliar spray on pre-infested radish plant; conditions: sprayed at 250 ppm, 6 days at 25° C., very good to excellent control
# [2] = test system: fall armyworm (Spodoptera frugiperda); assay: Test B: control of fall armyworm, foliar spray on pre-infested maize plant; conditions: sprayed at 250 ppm, very good to excellent control
# [3] = test system: potato leafhopper (Empoasca fabae); conditions: Soleil bean plant, 6 days
smiles,measurement,setting,value
O=c1c(-c2c(F)cc(F)cc2F)c([O-])[n+](Cc2cnc(Cl)s2)c2ccccn12 [Compound 501],control efficacy: feeding damage (40% or less feeding damage and/or 100% mortality),[1],≤ 40%
same,control efficacy: feeding damage (40% or less feeding damage and/or 100% mortality),[2],≤ 40%
same,mortality,[3]; sprayed at 50 ppm,≥ 80%
O=c1c(-c2c(F)cccc2F)c([O-])[n+](Cc2cnc(Cl)s2)c2ccccn12 [Compound 168],control efficacy: feeding damage (40% or less feeding damage and/or 100% mortality),[1],≤ 40%
same,control efficacy: feeding damage (40% or less feeding damage and/or 100% mortality),[2],≤ 40%
same,mortality,[3]; sprayed at 50 ppm,≥ 80%
O=c1c(-c2cccc(OC(F)(F)F)c2)c([O-])[n+](Cc2cnc(Cl)s2)c2sccn12 [Compound 141],control efficacy: feeding damage (40% or less feeding damage and/or 100% mortality),[1],≤ 40%
same,control efficacy: feeding damage (40% or less feeding damage and/or 100% mortality),[2],≤ 40%
same,mortality,[3]; sprayed at 50 ppm,≥ 80%
O=c1c(-c2ccc(OC(F)F)cc2)c([O-])[n+](Cc2ccc(Cl)nc2)c2ccccn12 [Compound 60],control efficacy: feeding damage (40% or less feeding damage and/or 100% mortality),[1],≤ 40%
same,control efficacy: feeding damage (40% or less feeding damage and/or 100% mortality),[2],≤ 40%
same,mortality,[3]; sprayed at 50 ppm,≥ 80%
same,mortality,[3]; sprayed at 250 ppm,≥ 80%
O=c1c(-c2ccc(F)c(C(F)(F)F)c2)c([O-])[n+](Cc2cnc(Cl)s2)c2ccccn12 [Compound 473],control efficacy: feeding damage (40% or less feeding damage and/or 100% mortality),[1],≤ 40%
same,control efficacy: feeding damage (40% or less feeding damage and/or 100% mortality),[2],≤ 40%
same,mortality,[3]; sprayed at 50 ppm,≥ 80%
same,mortality,[3]; sprayed at 250 ppm,≥ 80%
O=c1c(-c2cc(Cl)cc(OC(F)(F)F)c2)c([O-])[n+](Cc2cnc(Cl)s2)c2ccccn12 [Compound 622],control efficacy: feeding damage (40% or less feeding damage and/or 100% mortality),[1],≤ 40%
same,control efficacy: feeding damage (40% or less feeding damage and/or 100% mortality),[2],≤ 40%
same,mortality,[3]; sprayed at 50 ppm,≥ 80%
O=c1c(-c2ccccc2F)c([O-])[n+](Cc2cnc(Br)s2)c2ccccn12 [Compound 623],control efficacy: feeding damage (40% or less feeding damage and/or 100% mortality),[1],≤ 40%
same,control efficacy: feeding damage (40% or less feeding damage and/or 100% mortality),[2],≤ 40%
same,mortality,[3]; sprayed at 50 ppm,≥ 80%
O=c1c(-c2cc(OC(F)(F)F)ccc2Cl)c([O-])[n+](Cc2cnc(Cl)s2)c2ccccn12 [Compound 490],control efficacy: feeding damage (40% or less feeding damage and/or 100% mortality),[1],≤ 40%
same,control efficacy: feeding damage (40% or less feeding damage and/or 100% mortality),[2],≤ 40%
same,mortality,[3]; sprayed at 50 ppm,≥ 80%
O=c1c(-c2cc(Cl)ccc2F)c([O-])[n+](Cc2ccc(Cl)nc2)c2ccccn12 [Compound 70],control efficacy: feeding damage (40% or less feeding damage and/or 100% mortality),[1],≤ 40%
same,control efficacy: feeding damage (40% or less feeding damage and/or 100% mortality),[2],≤ 40%
same,mortality,[3]; sprayed at 50 ppm,≥ 80%
same,mortality,[3]; sprayed at 250 ppm,≥ 80%
O=c1c(-c2cc(C(F)(F)F)cc(Cl)c2F)c([O-])[n+](Cc2cnc(Cl)s2)c2ccccn12 [Compound 619],control efficacy: feeding damage (40% or less feeding damage and/or 100% mortality),[1],≤ 40%
same,control efficacy: feeding damage (40% or less feeding damage and/or 100% mortality),[2],≤ 40%
same,mortality,[3]; sprayed at 50 ppm,≥ 80%
Cc1ccc(-c2c([O-])[n+](Cc3cnc(Cl)s3)c3ccccn3c2=O)cc1 [Compound 480],control efficacy: feeding damage (40% or less feeding damage and/or 100% mortality),[1],≤ 40%
same,control efficacy: feeding damage (40% or less feeding damage and/or 100% mortality),[2],≤ 40%
same,mortality,[3]; sprayed at 50 ppm,≥ 80%
same,mortality,[3]; sprayed at 250 ppm,≥ 80%
O=c1c(-c2ccc(OC(F)(F)F)cc2)c([O-])[n+](Cc2ccc(Cl)nc2)c2ccccn12 [Compound 73],control efficacy: feeding damage (40% or less feeding damage and/or 100% mortality),[1],≤ 40%
same,control efficacy: feeding damage (40% or less feeding damage and/or 100% mortality),[2],≤ 40%
same,mortality,[3]; sprayed at 50 ppm,≥ 80%
same,mortality,[3]; sprayed at 250 ppm,≥ 80%
O=c1c(-c2cc(Br)cc(C(F)(F)F)c2)c([O-])[n+](Cc2cnc(Br)s2)c2ccccn12 [Compound 627],control efficacy: feeding damage (40% or less feeding damage and/or 100% mortality),[1],≤ 40%
same,control efficacy: feeding damage (40% or less feeding damage and/or 100% mortality),[2],≤ 40%
same,mortality,[3]; sprayed at 50 ppm,≥ 80%
O=c1c(-c2ccc(F)cc2)c([O-])[n+](Cc2cnc(Cl)s2)c2c(F)cccn12 [Compound 671],control efficacy: feeding damage (40% or less feeding damage and/or 100% mortality),[1],≤ 40%
same,control efficacy: feeding damage (40% or less feeding damage and/or 100% mortality),[2],≤ 40%
same,mortality,[3]; sprayed at 50 ppm,≥ 80%
O=c1c(-c2cc(Cl)cc(C(F)(F)F)c2)c([O-])[n+](Cc2cnc(Cl)s2)c2ccccn12 [Compound 634],control efficacy: feeding damage (40% or less feeding damage and/or 100% mortality),[1],≤ 40%
same,control efficacy: feeding damage (40% or less feeding damage and/or 100% mortality),[2],≤ 40%
same,mortality,[3]; sprayed at 50 ppm,≥ 80%
O=c1c(-c2cc(Cl)ccc2F)c([O-])[n+](Cc2cnc(Cl)s2)c2ccccn12 [Compound 173],control efficacy: feeding damage (40% or less feeding damage and/or 100% mortality),[1],≤ 40%
same,control efficacy: feeding damage (40% or less feeding damage and/or 100% mortality),[2],≤ 40%
same,mortality,[3]; sprayed at 50 ppm,≥ 80%
O=c1c(-c2ccc(C(F)(F)F)cc2)c([O-])[n+](Cc2ccc(Cl)nc2)c2ccccn12 [Compound 76],control efficacy: feeding damage (40% or less feeding damage and/or 100% mortality),[1],≤ 40%
same,control efficacy: feeding damage (40% or less feeding damage and/or 100% mortality),[2],≤ 40%
same,mortality,[3]; sprayed at 50 ppm,≥ 80%
same,mortality,[3]; sprayed at 250 ppm,≥ 80%
COc1cccc(-c2c([O-])[n+](Cc3cnc(Cl)s3)c3ccccn3c2=O)c1F [Compound 192],control efficacy: feeding damage (40% or less feeding damage and/or 100% mortality),[1],≤ 40%
same,control efficacy: feeding damage (40% or less feeding damage and/or 100% mortality),[2],≤ 40%
same,mortality,[3]; sprayed at 50 ppm,≥ 80%
N#Cc1ccccc1-c1c([O-])[n+](Cc2cnc(Cl)s2)c2ccccn2c1=O [Compound 481],control efficacy: feeding damage (40% or less feeding damage and/or 100% mortality),[1],≤ 40%
same,control efficacy: feeding damage (40% or less feeding damage and/or 100% mortality),[2],≤ 40%
same,mortality,[3]; sprayed at 50 ppm,≥ 80%
same,mortality,[3]; sprayed at 250 ppm,≥ 80%
O=c1c(-c2cc(F)cc(C(F)(F)F)c2)c([O-])[n+](Cc2cnc(Cl)s2)c2ccccn12 [Compound 215],control efficacy: feeding damage (40% or less feeding damage and/or 100% mortality),[1],≤ 40%
same,control efficacy: feeding damage (40% or less feeding damage and/or 100% mortality),[2],≤ 40%
same,mortality,[3]; sprayed at 50 ppm,≥ 80%
O=c1c(-c2cccc(OC(F)(F)F)c2)c([O-])[n+](Cc2cnc(Cl)s2)c2c(F)cccn12 [Compound 672],control efficacy: feeding damage (40% or less feeding damage and/or 100% mortality),[1],≤ 40%
same,control efficacy: feeding damage (40% or less feeding damage and/or 100% mortality),[2],≤ 40%
same,mortality,[3]; sprayed at 50 ppm,≥ 80%
O=c1c(-c2cc(Br)ccc2F)c([O-])[n+](Cc2cnc(Cl)s2)c2ccccn12 [Compound 496],control efficacy: feeding damage (40% or less feeding damage and/or 100% mortality),[1],≤ 40%
same,control efficacy: feeding damage (40% or less feeding damage and/or 100% mortality),[2],≤ 40%
same,mortality,[3]; sprayed at 50 ppm,≥ 80%
O=c1c(-c2cccc(S(F)(F)(F)(F)F)c2)c([O-])[n+](Cc2ccc(Cl)nc2)c2ccccn12 [Compound 254],control efficacy: feeding damage (40% or less feeding damage and/or 100% mortality),[1],≤ 40%
same,control efficacy: feeding damage (40% or less feeding damage and/or 100% mortality),[2],≤ 40%
same,mortality,[3]; sprayed at 50 ppm,≥ 80%
O=c1c(-c2cccc(S(F)(F)(F)(F)F)c2)c([O-])[n+](CC(F)(F)F)c2ccccn12 [Compound 255],control efficacy: feeding damage (40% or less feeding damage and/or 100% mortality),[1],≤ 40%
same,control efficacy: feeding damage (40% or less feeding damage and/or 100% mortality),[2],≤ 40%
same,mortality,[3]; sprayed at 50 ppm,≥ 80%
O=c1c(-c2ccc(OC(F)(F)F)cc2)c([O-])[n+](Cc2cnc(Cl)s2)c2ccccn12 [Compound 479],control efficacy: feeding damage (40% or less feeding damage and/or 100% mortality),[1],≤ 40%
same,control efficacy: feeding damage (40% or less feeding damage and/or 100% mortality),[2],≤ 40%
same,mortality,[3]; sprayed at 50 ppm,≥ 80%
same,mortality,[3]; sprayed at 250 ppm,≥ 80%
O=c1c(-c2cccc(C(F)(F)F)c2F)c([O-])[n+](Cc2ccc(Cl)nc2)c2ccccn12 [Compound 68],control efficacy: feeding damage (40% or less feeding damage and/or 100% mortality),[1],≤ 40%
same,control efficacy: feeding damage (40% or less feeding damage and/or 100% mortality),[2],≤ 40%
same,mortality,[3]; sprayed at 50 ppm,≥ 80%
same,mortality,[3]; sprayed at 250 ppm,≥ 80%
